Test results taken from the M2OR odorant receptor database.
Only a part is listed here, and it is no random draw. Calls are pooled over several reports, among them a noisy single-well screen. The list shows a part of the results.

Assays:
Conditions in all cases: stereoisomer not certain
[1] = target: T1, OR51I1 (Homo sapiens) (UniProt Q9H343)
T1 sequence (whole entry): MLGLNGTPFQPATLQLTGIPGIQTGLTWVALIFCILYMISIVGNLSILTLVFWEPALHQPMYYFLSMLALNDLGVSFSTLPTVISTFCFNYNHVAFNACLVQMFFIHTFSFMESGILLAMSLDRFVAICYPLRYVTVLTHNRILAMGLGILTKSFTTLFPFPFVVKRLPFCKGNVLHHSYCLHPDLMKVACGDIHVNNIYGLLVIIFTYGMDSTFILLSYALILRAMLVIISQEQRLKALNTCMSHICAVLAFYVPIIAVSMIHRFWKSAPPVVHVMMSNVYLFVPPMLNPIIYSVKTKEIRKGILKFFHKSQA
In short: (§1)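 Transient luciferase assays in mammalian cell lines were common, though methods varied by source. The values come from published papers and their supplementary material, with extra details from the original authors when needed. Responsive refers to a measured signal the original authors judged statistically different from baseline, and non-responsive (inactive) to the remainder.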

[2] = target: T2, OR51I2 (Homo sapiens) (UniProt Q9H344)
T2 sequence (whole entry): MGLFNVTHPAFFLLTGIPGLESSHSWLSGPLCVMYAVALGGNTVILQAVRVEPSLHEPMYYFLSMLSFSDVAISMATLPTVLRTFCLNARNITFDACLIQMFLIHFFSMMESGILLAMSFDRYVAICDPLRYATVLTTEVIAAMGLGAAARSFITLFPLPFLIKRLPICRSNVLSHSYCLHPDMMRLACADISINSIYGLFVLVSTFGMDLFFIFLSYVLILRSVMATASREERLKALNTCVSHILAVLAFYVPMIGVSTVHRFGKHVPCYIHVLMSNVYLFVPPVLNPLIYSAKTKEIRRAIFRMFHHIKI
In short: as §1

[3] = target: T3, OR51L1 (Homo sapiens) (UniProt Q8NGJ5)
T3 sequence (whole entry): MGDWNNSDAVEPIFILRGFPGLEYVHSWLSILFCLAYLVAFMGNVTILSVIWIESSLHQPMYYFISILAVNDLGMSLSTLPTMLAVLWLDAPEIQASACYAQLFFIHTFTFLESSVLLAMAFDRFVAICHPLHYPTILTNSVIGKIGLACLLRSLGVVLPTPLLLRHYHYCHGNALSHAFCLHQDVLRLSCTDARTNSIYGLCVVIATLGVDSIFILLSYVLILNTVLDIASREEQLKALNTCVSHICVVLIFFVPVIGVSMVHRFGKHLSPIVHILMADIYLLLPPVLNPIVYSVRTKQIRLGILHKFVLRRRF
In short: as §1

[4] = target: T4, OR51S1 (Homo sapiens) (UniProt Q8NGJ8)
T4 sequence (whole entry): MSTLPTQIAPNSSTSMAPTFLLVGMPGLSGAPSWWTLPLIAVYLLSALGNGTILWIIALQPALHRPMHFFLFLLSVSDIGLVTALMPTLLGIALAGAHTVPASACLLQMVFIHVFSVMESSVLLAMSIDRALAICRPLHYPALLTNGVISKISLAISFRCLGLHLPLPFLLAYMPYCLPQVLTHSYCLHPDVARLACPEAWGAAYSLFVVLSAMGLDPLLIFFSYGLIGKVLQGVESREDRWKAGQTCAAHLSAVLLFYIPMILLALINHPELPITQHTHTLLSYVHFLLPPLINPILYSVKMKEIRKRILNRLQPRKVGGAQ
In short: as §1

[5] = target: T5, OR52A4P (Homo sapiens) (UniProt A6NMU1)
T5 sequence (whole entry): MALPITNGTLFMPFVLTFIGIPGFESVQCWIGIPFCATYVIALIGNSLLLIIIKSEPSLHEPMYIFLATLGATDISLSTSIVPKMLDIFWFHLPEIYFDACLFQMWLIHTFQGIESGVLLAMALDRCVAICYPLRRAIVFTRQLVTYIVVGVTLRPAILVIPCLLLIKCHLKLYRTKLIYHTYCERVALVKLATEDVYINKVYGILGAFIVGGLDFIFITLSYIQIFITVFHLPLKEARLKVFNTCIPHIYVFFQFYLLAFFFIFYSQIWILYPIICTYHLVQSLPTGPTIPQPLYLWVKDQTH
In short: as §1

[6] = target: T6, OR52A5 (Homo sapiens) (UniProt Q9H2C5)
T6 sequence (whole entry): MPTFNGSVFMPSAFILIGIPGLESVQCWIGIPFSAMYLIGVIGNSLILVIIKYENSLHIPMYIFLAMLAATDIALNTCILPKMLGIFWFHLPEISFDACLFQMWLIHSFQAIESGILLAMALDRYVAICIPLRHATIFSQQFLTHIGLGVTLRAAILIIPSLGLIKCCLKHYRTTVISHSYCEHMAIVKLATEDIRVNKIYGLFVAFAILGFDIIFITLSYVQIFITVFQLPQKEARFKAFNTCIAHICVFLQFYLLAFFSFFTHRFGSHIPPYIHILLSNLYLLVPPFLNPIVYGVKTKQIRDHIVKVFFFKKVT
In short: as §1

[7] = target: T7, OR52B4 (Homo sapiens) (UniProt Q8NGK2)
T7 sequence (whole entry): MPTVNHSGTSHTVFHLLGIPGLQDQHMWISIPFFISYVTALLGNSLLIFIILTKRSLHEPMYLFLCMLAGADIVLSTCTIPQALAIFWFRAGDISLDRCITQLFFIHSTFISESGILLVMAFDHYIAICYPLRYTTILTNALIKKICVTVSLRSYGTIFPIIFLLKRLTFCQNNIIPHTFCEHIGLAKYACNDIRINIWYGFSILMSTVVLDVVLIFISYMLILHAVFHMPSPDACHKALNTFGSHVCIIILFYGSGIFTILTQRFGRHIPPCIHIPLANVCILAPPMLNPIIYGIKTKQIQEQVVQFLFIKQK
In short: as §1

[8] = target: T8, OR52D1 (Homo sapiens) (UniProt Q9H346)
T8 sequence (whole entry): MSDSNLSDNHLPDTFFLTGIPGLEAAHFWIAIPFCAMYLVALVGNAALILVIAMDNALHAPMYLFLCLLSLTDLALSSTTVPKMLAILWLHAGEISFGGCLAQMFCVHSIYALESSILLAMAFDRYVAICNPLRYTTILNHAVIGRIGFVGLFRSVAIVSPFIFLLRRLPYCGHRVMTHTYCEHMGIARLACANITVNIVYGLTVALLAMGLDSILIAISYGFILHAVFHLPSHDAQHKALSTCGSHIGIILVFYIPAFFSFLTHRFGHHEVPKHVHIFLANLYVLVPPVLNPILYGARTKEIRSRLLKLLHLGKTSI
In short: as §1

Measured: odorant receptor agonist call

CCCCCC(=O)O
active: [3] | [8]
inactive: all other assays above

CC(C)C(=O)O
active: [8]
inactive: all other assays above

CC12C=CCC1C1CCC3=CC(=O)CCC3(C)C1CC2 (stereo unspecified)
inactive: all assays above

CCCCO
inactive: all assays above

CC12CCC(CC1)C(C)(C)O2
inactive: all assays above

c1ccc(Oc2ccccc2)cc1
inactive: all assays above

CCC1(O)C2(C)CCC(C2)C1(C)C (stereo unspecified)
inactive: all assays above
